Measured values from publication PMC9006432.
These are yes or no findings as the source states them, for the method shown. Binding seen in cells or lysates may run through a third protein. Some results given as binding are weak or reduced against the parent protein; the word gives no strength.

Chains of the proteins cited; added tags and fusions are not shown. Lines headed by an entry give the natural chain unless they say otherwise; changes in a name come on top.
UniProt P49736: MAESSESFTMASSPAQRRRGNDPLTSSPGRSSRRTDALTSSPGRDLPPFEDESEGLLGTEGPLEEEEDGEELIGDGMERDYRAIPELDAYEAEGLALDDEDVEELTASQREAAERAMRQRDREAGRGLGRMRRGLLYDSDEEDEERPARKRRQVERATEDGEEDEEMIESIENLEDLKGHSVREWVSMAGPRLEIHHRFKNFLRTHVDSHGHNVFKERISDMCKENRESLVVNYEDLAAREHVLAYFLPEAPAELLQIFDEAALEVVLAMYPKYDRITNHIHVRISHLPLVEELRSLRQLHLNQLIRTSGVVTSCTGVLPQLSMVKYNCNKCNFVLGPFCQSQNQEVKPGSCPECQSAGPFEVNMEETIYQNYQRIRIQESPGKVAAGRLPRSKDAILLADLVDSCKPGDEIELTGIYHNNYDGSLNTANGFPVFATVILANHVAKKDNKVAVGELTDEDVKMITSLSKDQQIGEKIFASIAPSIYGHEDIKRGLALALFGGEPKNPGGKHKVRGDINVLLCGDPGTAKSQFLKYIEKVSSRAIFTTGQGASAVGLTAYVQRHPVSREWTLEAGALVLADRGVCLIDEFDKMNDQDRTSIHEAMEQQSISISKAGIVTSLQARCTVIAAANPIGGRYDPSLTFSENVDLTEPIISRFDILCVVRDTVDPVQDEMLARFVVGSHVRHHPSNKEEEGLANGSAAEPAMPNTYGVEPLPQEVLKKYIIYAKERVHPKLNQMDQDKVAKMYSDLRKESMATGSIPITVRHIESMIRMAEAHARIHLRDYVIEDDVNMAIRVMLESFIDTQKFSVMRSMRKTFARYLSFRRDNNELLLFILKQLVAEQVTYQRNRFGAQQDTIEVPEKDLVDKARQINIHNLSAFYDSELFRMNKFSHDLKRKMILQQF
UniProt P39748: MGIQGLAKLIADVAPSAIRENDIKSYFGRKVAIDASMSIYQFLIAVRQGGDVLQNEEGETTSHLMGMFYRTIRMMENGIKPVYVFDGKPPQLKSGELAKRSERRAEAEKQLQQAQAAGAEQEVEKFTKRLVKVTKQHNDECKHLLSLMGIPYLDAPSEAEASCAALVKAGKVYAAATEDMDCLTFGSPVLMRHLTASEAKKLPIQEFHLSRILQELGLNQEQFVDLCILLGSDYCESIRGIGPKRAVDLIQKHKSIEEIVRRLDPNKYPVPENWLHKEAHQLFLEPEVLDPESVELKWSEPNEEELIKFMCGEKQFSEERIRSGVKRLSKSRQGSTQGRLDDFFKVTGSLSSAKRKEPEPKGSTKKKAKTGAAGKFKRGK

Assays:
[1] = molecular target: T1, MCM5 (human (endogenous in M059J and M059K)) (UniProt P33992); test: proximity ligation; in situ PLA (Duolink) on pre-extracted (CSK-R buffer), fixed cells with antibodies against the two endogenous proteins; M059K with or without 2 mM HU for 4 h, siNC; M059J or M059K transfected with siDNA-PKcs
T1 sequence: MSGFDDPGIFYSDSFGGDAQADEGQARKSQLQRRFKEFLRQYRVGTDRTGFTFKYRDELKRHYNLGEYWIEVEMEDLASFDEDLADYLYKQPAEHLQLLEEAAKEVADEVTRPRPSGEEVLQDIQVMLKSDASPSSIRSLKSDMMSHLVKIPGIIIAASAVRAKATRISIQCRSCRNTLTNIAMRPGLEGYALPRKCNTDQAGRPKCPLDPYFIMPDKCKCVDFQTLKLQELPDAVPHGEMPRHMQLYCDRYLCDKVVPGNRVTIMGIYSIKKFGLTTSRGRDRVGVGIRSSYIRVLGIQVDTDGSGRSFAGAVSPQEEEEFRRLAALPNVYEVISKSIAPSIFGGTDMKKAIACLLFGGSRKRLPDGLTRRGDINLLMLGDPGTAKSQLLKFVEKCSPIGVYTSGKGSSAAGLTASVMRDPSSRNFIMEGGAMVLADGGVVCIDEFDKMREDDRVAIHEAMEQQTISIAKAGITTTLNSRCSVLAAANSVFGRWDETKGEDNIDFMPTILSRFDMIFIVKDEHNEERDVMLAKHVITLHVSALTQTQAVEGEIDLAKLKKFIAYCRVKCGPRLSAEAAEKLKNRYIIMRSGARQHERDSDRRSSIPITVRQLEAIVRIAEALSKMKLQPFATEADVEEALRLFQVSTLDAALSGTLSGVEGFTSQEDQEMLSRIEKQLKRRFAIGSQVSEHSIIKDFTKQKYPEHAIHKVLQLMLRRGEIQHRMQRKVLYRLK

[2] = molecular target: MCM2 (human (endogenous in M059J and M059K)) (UniProt P49736); test: as above

binding [1]: binds
binding [2]: binds
Substance: Flap endonuclease 1 (FEN1) (from UniProt P39748 1-380)
